Reference: patent US12287332B2, “Test cartridges” (First Light Diagnostics, Inc., priority 2018, dated 2025)
At least one compound was matched to its structure with a doubt left.

Tested on: E. coli ATCC 25922
Test: Broth microdilution (BMD) in presence of beta-lactamase producing K. pneumoniae, Example 11
Type: cell-based
Conditions: sensitive E. coli strain; 16-24 hours of growth; increasing levels of K. pneumoniae

C[C@@H](O)[C@H]1C(=O)N2C(C(=O)O)=C(SCCN=CN)C[C@H]12 [Imipenem]
MIC trend, BMD method: increasing MIC
